The target in the experiment is Sec23 homolog B (SEC23B) (human (endogenous in SW480)) (UniProt Q15437). The experiment can be described thus: co-IP; SW480 cells homogenized, immunoprecipitated with homemade monoclonal antibody against SEC23B, immunoblotted with antibodies against EPCAM or CD9. On the technique in general: A western blot detects proteins with antibodies after separation by electrophoresis.

Protein sequences, listed by entry. Tags and fused reporters are not part of them.
UniProt Q15437: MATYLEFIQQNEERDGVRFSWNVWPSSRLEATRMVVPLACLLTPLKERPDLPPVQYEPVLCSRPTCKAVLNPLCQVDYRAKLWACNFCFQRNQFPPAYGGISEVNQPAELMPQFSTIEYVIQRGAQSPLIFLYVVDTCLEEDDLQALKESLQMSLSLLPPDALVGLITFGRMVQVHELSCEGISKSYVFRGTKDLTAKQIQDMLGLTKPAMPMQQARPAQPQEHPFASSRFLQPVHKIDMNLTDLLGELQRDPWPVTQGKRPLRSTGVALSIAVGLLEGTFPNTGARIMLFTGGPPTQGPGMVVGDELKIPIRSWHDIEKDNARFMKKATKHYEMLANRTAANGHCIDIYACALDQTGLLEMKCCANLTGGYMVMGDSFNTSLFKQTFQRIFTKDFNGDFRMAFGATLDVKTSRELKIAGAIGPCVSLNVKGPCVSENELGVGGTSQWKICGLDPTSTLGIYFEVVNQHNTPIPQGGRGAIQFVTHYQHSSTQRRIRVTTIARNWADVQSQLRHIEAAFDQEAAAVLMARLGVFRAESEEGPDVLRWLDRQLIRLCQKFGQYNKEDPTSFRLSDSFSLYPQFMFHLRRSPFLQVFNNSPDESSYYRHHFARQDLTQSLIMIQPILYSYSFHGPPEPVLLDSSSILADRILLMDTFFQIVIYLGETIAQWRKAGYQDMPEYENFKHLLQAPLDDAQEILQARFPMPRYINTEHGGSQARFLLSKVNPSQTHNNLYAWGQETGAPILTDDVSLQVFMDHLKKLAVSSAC
UniProt P21926: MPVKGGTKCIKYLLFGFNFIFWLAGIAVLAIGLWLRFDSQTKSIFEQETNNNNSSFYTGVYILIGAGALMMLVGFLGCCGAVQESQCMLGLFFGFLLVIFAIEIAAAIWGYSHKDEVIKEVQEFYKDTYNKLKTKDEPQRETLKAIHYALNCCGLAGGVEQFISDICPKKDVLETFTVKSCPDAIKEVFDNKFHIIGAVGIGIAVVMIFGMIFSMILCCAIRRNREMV

Results are given in words; binding and its absence hold for the method and conditions named. Binding seen in cells or lysates may run through a third protein. Some entries that bind do so weakly or less than the wild type.

On to “CD9 molecule (from UniProt P21926 1-228)”, for which the binding entry was “binds”.

B1: epithelial cell adhesion molecule (EPCAM) (protein, UniProt P16422 24-314)
chain: QEECVCENYKLAVNCFVNNNRQCQCTSVGAQNTVICSKLAAKCLVMKAEMNGSKLGRRAKPEGALQNNDGLYDPDCDESGLFKAKQCNGTSMCWCVNTAGVRRTDKDTEITCSERVRTYWIIIELKHKAREKPYDSKSLRTALQKEITTRYQLDPKFITSILYENNVITIDLVQNSSQKTQNDVDIADVAYYFEKDVKGESLFHSKKMDLTVNGEQLDLDPGQTLIYYVDEKAPEFSMQGLKAGVIAVIVVVVIAVVAGIVVLVISRKKRMAKYEKAEIKEMGEMHRELNA
For the molecule B1, the binding entry is “binds”.

The record behind these values is article PMC7052170.
